Two substances from article PMC7012618 can be followed below.

Sequences of proteins named here, by UniProt entry; tags and fusion partners are left off.
UniProt P09874: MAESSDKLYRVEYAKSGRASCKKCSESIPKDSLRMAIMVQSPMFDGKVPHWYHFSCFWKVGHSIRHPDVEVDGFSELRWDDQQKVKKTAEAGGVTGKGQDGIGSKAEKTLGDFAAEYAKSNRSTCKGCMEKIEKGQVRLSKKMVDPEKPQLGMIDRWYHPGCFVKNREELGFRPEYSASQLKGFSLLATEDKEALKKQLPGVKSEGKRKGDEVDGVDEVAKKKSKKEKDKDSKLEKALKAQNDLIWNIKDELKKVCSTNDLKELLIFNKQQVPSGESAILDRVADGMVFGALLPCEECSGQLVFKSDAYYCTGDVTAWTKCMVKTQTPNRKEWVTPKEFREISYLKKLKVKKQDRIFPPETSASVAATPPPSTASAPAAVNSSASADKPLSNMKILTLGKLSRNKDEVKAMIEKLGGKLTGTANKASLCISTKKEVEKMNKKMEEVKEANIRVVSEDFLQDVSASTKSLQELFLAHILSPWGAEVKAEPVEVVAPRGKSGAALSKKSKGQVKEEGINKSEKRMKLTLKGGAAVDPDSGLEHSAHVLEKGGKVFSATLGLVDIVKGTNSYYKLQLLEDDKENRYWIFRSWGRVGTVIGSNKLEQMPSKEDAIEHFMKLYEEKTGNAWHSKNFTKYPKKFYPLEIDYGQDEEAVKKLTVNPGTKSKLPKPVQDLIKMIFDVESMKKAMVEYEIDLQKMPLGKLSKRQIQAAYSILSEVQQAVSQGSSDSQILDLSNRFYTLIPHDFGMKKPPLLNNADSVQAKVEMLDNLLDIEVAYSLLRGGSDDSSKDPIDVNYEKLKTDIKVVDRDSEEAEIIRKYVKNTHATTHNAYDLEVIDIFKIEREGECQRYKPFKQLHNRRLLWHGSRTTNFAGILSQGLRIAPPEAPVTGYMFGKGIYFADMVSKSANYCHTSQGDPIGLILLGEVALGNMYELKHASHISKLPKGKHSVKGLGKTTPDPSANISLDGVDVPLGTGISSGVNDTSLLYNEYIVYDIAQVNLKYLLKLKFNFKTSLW

Assay [1] deals with GFP-Kif2C (human, WT) (human) (UniProt Q99661). The assay is described as follows: co-IP; GFP-Kif2C (WT or deletion mutants) expressed in HeLa cells with doxorubicin treatment; IP with anti-GFP or control (blank) beads; immunoblotting. For orientation: In western blotting, separated proteins are transferred to a membrane and probed.
In assay [2] the target is MBP-Kif2C (human Kif2C expressed with MBP-tag) (human) (UniProt Q99661). Put plainly: pull-down; MBP Kif2C (WT or segments) on amylose beads incubated in HeLa cell lysates for 1 hr at room temperature, washed five times, immunoblotted; cells with or without doxorubicin (2 μg/mL); lysates with or without DNase I (100 units/mL); control with blank beads; only the target purified.

No constants are given. Whether binding was seen depends on the method and setting. Binding seen in cells or lysates may run through a third protein. Some results given as binding are weak or reduced against the parent protein; the word gives no strength. Tags and fused reporters may be left off the sequences shown.

For “Ku70/Ku80 (from UniProt P12956 1-609; P13010 1-732) (complex)”, the binding result in assay [1] and in assay [2] was “binds” in each case.

As for PARP1 (from UniProt P09874 1-1014), the binding entry in assay [1] and in assay [2] was “binds” throughout.
